Source: article doi:10.1101/2024.01.16.575832
Like-named read-outs stand apart in the source and are kept apart here. Results are given in words; binding and its absence hold for the method and conditions named. Some results given as binding are weak or reduced against the parent protein; the word gives no strength.

Key:
[1] = molecular target: T1, full-length Ply2638A endolysin (PlyFL) (Staphylococcus pseudintermedius phage φ2638A) (UniProt Q4ZD58); assay: SPR
T1 sequence: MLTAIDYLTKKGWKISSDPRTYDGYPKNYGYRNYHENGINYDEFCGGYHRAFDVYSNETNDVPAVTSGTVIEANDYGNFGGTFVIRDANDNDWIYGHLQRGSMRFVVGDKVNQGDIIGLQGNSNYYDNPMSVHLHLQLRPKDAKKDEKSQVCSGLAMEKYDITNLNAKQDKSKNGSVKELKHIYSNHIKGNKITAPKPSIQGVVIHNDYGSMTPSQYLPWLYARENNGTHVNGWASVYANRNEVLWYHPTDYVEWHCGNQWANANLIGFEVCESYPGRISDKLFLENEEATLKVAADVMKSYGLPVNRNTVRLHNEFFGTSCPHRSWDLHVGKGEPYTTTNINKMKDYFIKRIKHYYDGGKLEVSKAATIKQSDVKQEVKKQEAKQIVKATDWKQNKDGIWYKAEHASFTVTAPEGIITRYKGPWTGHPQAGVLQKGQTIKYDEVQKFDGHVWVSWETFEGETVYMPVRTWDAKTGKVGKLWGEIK

[2] = molecular target: T1, full-length Ply2638A endolysin (PlyFL) (Staphylococcus pseudintermedius phage φ2638A); assay: SEC
[3] = molecular target: Ply2638A short variant isoform (PlySV) (Staphylococcus pseudintermedius phage φ2638A) (UniProt Q4ZD58); assay: SEC-MALS
[4] = molecular target: Ply2638A short variant isoform (PlySV) (Staphylococcus pseudintermedius phage φ2638A) (UniProt Q4ZD58); assay: SEC-MALS; remark: listed apart in the source

## SH3b cell wall binding domain of Ply2638A (CBD) (from UniProt Q4ZD58 393-486) (domain or fragment)
[1]
  binding: no binding (tested: 5 μM)

## M23 peptidase domain of Ply2638A (M23-2638A) (from UniProt Q4ZD58 1-174) (domain or fragment)
[1]
  binding: no binding (tested: 5 μM)

B1: Ply2638A short variant isoform (PlySV) (domain or fragment, UniProt Q4ZD58 180-486)
chain: LKHIYSNHIKGNKITAPKPSIQGVVIHNDYGSMTPSQYLPWLYARENNGTHVNGWASVYANRNEVLWYHPTDYVEWHCGNQWANANLIGFEVCESYPGRISDKLFLENEEATLKVAADVMKSYGLPVNRNTVRLHNEFFGTSCPHRSWDLHVGKGEPYTTTNINKMKDYFIKRIKHYYDGGKLEVSKAATIKQSDVKQEVKKQEAKQIVKATDWKQNKDGIWYKAEHASFTVTAPEGIITRYKGPWTGHPQAGVLQKGQTIKYDEVQKFDGHVWVSWETFEGETVYMPVRTWDAKTGKVGKLWGEIK
[1]
  binding: binds
[2]
  binding: binds
[3]
  binding: no binding (tested: 1 mg/mL)
[4]
  binding: no binding (tested: 1 mg/mL)
